For at least one entry, the source does not settle the construct or the ends of the probe. For some assays here: No signal at the amounts used counts as a negative. For some assays here: At least one verdict rests on a figure or table, not on a statement of the authors. For some assays here: Whether high values mean tight binding is not given here for every scale.
Legend:
[1] = target: Su(H) (CSL) (Drosophila) (UniProt P28159); assay: competition with a labelled probe; settings: unlabeled 8.75-140 nM vs 3.5 nM labeled 2xCSL17, 40 nM Su(H); EMSA, room temperature 20 min (temporal competition: RT 10 min then 4 C); salt and pH not given (refs 63,64); labeled probe 3.5 nM in competition assays; recombinant protein; residues 98-523
[2] = target: Su(H) (CSL) (Drosophila) (UniProt P28159); assay: EMSA; settings: room temperature 20 min (temporal competition: RT 10 min then 4 C), salt and pH not given (refs 63,64), labeled probe 3.5 nM in competition assays, recombinant protein, residues 98-523
[3] = tested on: Su(H) (CSL) + Hairless; assay: EMSA; settings: 2 uM Hairless, Su(H) 2.5-160 nM, additive, room temperature 20 min (temporal competition: RT 10 min then 4 C), salt and pH not given (refs 63,64), labeled probe 3.5 nM in competition assays, recombinant protein
[4] = tested on: Su(H) (CSL) + NICD (Notch intracellular domain) + Mastermind (Mam); assay: EMSA; settings: 2 uM NICD/Mam, Su(H) 2.5-160 nM, salt and pH not given (refs 63,64), labeled probe 3.5 nM in competition assays, recombinant protein
[5] = Su(H) 0.94-15 nM, non-cooperative

Protein sequences, listed by entry. Tags and fused reporters are not part of them. Residues count along the entry.
UniProt P28159, 98-523: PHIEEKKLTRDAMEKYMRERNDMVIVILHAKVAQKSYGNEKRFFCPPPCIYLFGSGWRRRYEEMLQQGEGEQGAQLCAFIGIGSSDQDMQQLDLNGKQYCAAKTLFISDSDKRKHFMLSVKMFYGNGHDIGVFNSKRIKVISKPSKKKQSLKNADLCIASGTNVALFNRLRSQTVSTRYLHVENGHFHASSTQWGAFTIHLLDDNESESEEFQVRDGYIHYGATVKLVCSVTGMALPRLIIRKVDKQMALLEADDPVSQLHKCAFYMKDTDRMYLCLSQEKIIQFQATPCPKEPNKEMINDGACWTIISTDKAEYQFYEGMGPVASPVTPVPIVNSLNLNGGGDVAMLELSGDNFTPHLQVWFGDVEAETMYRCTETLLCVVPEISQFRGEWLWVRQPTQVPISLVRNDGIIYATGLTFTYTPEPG

Sequence	binding result [1]	binding result ([2]; Su(H) 0.94-15 nM)	binding result [2, 5]	binding result ([3]; non-cooperative)	binding result ([2]; Su(H) 2.5-160 nM, additive)	binding result [3]	further results
CGAACGAGGCAAACCTAGGCTAGAGGCACCGAGGCAAACTAGTGCGGGCGTGGCT (double strand) [2xCSL17mut]	no binding	no binding	–	–	–	–	–
CGAACGTGGGAAACCTAGGCTAGAGGCACCGTGGGAAACTAGTGCGGGCGTGGCT (double strand) [2xCSL17]	binds	–	binds	binds	–	–	binding result ([4]; non-cooperative (C close to 1), rapidly competed by 10x cold 2xCSL17, room temperature 20 min (temporal competition: RT 10 min then 4 C)): binds
CGAACGTGGGAAACCTAGGCTAGAGGCACTTCCCACGACTAGTGCGGGCGTGGCT (double strand) [1xSPS17]	–	–	–	–	binds	binds	binding result ([4]; cooperative, room temperature 20 min (temporal competition: RT 10 min then 4 C)): binds
GCTACGAGGCAAAGGAGCAAACTGCGTTTGCCTCGTTCGTAGTGCGGGCGTGGCT (double strand) [1xSPS15mut]	–	no binding	–	–	–	–	–
GCTACGTGGGAAAGGAGCAAACTGCGTCGTGGGAATTCGTAGTGCGGGCGTGGCT (double strand) [2xCSL15]	–	–	–	–	binds	binds	binding result ([4]; not cooperative, room temperature 20 min (temporal competition: RT 10 min then 4 C)): binds
GCTACGTGGGAAAGGAGCAAACTGCGTTTCCCACGTTCGTAGTGCGGGCGTGGCT (double strand) [1xSPS15]	binds	–	binds	binds	–	–	binding signal (cooperativity factor C (Kd1/Kd2)) ([4]; cooperative, 2NCM dissociates more slowly than from 2xCSL17, room temperature 20 min (temporal competition: RT 10 min then 4 C)): 16.9

Reference: publication PMC8494340
